Results on one substance are retold here after PMC6261950.

The target of the test is H2AX (human (endogenous in 293T and HTB126)) (UniProt P16104). Put plainly: co-IP; endogenous proteins in 293T lysate; immunoprecipitation with anti-H2AX or anti-p53 antibody, Western blotting; cells also transfected with vector, circ-Ccnb1, control oligo or p53 siRNA. (A western blot detects proteins with antibodies after separation by electrophoresis.)

No constants are given. Whether binding was seen depends on the method and setting. In cells and extracts the contact can be indirect. Some results given as binding are weak or reduced against the parent protein; the word gives no strength.

For Bclaf1 (from UniProt Q9NYF8 1-920), the binding result is listed as “binds”.
